Source: PubChem BioAssay AID2662 (National Center for Advancing Translational Sciences (NCATS), 2010)
Screen size: about 290,000 compounds; about 110 (0.038%) were called active. The inconclusive results got no clear call from the source; some entries with a clear call stand among them for comparison. The call rests on the fitted dose curve; in most records, active means well fitted inhibition curve with a large enough effect in the polarisation, with a control signal flat (not every such curve was filed as active); inconclusive means small, poorly fitted or top-dose-only effect, or effect the other way, or a change in a side signal; inactive means no such curve, though single readings can be large or run the other way; the % refers to the polarisation. A potency beside an inconclusive call is a rough fit, not a confirmed value. A note “side channel” means that the fit belongs to a control or component signal, not to the main read-out.

Chains of the proteins cited; added tags and fusions are not shown.
UniProt Q03164, whole entry, looked up: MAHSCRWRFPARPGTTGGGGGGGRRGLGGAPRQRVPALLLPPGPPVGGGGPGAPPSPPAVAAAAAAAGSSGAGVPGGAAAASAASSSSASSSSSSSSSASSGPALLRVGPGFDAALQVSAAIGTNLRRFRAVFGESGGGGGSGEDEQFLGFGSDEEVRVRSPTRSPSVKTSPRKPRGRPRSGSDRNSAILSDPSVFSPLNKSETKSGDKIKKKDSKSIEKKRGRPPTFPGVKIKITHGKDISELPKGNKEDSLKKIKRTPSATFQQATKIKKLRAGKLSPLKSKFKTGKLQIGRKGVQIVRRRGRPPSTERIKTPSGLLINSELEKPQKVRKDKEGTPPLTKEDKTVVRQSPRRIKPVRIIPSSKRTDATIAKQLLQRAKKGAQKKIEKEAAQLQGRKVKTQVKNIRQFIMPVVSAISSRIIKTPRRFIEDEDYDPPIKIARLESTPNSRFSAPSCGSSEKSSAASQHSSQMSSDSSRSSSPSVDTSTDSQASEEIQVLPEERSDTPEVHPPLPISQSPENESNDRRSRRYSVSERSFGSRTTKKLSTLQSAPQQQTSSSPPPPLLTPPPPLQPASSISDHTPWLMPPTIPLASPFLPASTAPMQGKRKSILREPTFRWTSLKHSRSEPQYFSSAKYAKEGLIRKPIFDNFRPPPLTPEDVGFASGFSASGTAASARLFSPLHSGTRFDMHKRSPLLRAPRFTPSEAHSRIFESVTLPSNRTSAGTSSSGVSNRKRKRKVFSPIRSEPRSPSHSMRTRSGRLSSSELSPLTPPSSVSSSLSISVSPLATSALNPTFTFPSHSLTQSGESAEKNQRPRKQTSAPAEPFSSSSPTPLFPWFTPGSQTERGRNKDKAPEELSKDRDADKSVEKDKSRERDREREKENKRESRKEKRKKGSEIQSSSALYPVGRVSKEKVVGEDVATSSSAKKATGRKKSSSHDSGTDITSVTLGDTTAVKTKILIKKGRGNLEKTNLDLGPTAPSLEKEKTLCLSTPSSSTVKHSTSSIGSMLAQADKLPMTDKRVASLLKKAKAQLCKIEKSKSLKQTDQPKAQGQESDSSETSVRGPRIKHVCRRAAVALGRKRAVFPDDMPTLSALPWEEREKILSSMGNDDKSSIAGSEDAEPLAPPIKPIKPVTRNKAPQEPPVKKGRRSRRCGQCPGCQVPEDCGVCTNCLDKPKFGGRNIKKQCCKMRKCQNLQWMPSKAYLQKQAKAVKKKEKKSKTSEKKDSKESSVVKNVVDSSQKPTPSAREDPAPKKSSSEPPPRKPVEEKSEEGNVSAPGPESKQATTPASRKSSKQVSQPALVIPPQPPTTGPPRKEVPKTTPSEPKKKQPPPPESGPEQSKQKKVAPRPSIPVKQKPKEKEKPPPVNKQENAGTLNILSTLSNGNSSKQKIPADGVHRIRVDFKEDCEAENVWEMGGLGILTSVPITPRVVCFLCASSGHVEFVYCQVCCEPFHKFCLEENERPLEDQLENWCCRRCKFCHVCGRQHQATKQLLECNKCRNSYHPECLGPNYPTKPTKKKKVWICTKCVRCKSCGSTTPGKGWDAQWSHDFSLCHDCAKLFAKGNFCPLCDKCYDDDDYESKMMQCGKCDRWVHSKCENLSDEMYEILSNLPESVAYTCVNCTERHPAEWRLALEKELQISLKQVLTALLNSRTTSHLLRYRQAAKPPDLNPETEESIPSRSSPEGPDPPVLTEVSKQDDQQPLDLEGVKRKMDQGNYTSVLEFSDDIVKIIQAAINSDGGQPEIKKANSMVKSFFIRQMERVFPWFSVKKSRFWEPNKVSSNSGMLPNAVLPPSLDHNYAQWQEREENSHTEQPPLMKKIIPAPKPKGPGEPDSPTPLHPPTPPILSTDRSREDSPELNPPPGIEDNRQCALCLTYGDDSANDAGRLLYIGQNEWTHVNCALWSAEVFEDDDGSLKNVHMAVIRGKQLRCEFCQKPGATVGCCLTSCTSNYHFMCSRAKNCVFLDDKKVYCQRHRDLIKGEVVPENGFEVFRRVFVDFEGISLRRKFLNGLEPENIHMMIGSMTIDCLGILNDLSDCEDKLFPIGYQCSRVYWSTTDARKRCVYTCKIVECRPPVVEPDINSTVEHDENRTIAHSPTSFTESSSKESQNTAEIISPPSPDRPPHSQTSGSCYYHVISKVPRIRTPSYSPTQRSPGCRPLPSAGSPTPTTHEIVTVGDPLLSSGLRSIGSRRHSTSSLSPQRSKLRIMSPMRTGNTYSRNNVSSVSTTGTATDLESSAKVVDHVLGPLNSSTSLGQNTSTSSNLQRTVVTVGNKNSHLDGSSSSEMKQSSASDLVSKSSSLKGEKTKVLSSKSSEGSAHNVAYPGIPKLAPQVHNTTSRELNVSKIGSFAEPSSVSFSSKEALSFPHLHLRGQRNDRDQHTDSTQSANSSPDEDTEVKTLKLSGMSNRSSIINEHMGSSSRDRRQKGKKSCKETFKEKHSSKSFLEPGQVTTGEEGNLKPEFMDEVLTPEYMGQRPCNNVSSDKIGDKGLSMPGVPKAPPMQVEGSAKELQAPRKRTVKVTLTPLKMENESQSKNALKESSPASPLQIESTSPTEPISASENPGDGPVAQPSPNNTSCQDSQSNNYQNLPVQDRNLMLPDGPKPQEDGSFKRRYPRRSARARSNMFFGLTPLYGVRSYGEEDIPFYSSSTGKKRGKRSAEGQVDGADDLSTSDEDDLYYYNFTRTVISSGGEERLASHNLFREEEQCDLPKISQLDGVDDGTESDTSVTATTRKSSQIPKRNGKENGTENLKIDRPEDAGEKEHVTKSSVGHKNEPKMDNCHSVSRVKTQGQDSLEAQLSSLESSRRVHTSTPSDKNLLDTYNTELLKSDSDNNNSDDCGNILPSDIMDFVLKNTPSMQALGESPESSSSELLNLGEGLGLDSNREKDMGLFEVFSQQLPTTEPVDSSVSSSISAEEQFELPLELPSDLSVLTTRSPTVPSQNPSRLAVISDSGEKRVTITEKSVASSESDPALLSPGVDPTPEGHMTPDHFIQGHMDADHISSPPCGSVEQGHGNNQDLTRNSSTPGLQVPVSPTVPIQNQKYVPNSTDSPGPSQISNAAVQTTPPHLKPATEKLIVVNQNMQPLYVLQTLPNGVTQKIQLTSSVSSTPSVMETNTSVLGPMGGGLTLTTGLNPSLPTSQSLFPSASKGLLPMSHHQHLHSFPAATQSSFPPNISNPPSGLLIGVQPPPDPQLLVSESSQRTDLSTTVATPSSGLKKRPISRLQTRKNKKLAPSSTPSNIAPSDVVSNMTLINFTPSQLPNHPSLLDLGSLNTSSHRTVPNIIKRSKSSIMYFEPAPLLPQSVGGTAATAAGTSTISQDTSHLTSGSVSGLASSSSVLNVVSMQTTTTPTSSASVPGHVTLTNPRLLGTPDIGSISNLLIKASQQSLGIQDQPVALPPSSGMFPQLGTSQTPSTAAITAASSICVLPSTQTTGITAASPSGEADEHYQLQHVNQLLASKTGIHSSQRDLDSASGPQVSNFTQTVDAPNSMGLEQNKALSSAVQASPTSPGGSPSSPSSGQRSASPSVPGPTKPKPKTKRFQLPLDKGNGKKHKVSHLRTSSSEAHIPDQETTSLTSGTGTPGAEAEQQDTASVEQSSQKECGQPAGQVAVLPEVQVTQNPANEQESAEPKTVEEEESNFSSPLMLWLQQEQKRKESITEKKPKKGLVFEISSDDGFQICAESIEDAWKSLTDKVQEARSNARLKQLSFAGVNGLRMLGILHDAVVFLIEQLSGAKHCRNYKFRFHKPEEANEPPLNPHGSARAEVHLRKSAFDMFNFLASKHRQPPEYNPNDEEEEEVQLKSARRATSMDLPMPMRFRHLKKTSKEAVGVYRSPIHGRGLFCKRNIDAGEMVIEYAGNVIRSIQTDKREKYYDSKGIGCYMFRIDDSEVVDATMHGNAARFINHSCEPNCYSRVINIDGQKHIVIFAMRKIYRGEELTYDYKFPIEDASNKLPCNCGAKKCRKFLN

These molecules were tested against Histone-lysine N-methyltransferase 2A (Homo sapiens) (UniProt Q03164) (assay: qHTS Fluorescence Polarization Assay for Inhibitors of MLL CXXC domain - DNA interaction). Conditions: MLL-CXXC / FITC-HOXA9 DNA fluorescence polarization; activity change, negative = inhibition: at 115 µM (top of the series).
Summary of the method: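 Purified MLL-CXXC (added from a 7 uM solution) was preincubated 5 min at ambient with pinned compounds in 50 mM Tris-HCl pH 7.5, 50 mM NaCl, 1 mM DTT, 0.05% BSA. Fluorescein-labeled HOX-A9 DNA (50 nM solution) followed, 30 min, then polarization read.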
Potency means the concentration at half of the fitted maximal effect.

Row | SMILES | Potency | activity change, negative = inhibition
1 | COc1ccc(C2C(=O)c3ccccc3C2=Nc2ccc(Br)cc2)cc1 (centres undefined) | inconclusive: 35.5 µM [inhibitor, single point] | 
2 | CCSc1nnc(NC(=O)NC(CC)(C(F)(F)F)C(F)(F)F)s1 |  | inactive: 5.7%
3 | COc1ccc(N/C=C/c2nc(SC)nnc2C)cc1 | inconclusive: 8.91 µM [fluorescent, side channel, partial curve] | 
4 | Cc1ccccc1NC(=O)CN1C(=O)S/C(=C\c2ccc(-c3cc(C(=O)O)ccc3C)o2)C1=O | inconclusive: 70.8 µM [fluorescent, single point] | 
5 | COc1ccc(CCn2c(=N)c(S(=O)(=O)c3ccccc3)cc3c(=O)n4ccccc4nc32)cc1 |  | inactive: -9.99%
6 | Cc1cc(C)cc(-n2ncc3c2CCCC3NC(=O)c2csnn2)c1 (centres undefined) | inconclusive: 10 µM [fluorescent, side channel, single point] | 
7 | O=c1oc2ccccc2c(O)c1/C=C1\C=Nc2ccccc21 | inconclusive: 35.5 µM [inhibitor, single point] | 
8 | O=C(COC(=O)c1ccc[nH]c1=O)NCCc1ccc(F)cc1 |  | inactive: -11%
9 | CNC(=O)c1c(NC(=O)c2ccc(S(=O)(=O)N3CCCc4ccccc43)cc2)sc2c1CCN(C)C2 | inconclusive: 31.6 µM [fluorescent, single point] | 
10 | CCCCCNC(=O)c1ccc2c(=O)n(CCCN3CCCC3=O)c(=S)[nH]c2c1 | inconclusive: 12.6 µM [fluorescent, side channel, full curve] | 
11 | CN(C)c1ccc(C2(c3ccc(N(C)C)cc3)OC(=O)c3cc(N)ccc32)cc1 | inconclusive: 31.6 µM [quencher, side channel, single point] | 
12 | Cc1ccc(S(=O)(=O)CCC(=O)c2cccc([N+](=O)[O-])c2)cc1 | inconclusive: 14.1 µM [fluorescent, single point] | 
13 | Cc1ccc(/C=C2/NC(=O)N(Cc3ccccc3F)C2=O)s1 | inconclusive: 31.6 µM [fluorescent, side channel, partial curve] | 
14 | Clc1ccc(-c2nnc(NCCN3CCCC3)c3ccccc23)cc1 | inconclusive: 31.6 µM [fluorescent, side channel, single point] | 
15 | Cc1ccc(N2CC(O)Cn3c2nc2c3c(=O)[nH]c(=O)n2C)cc1 (centres undefined) | inconclusive: 35.5 µM [fluorescent, side channel, single point] | 
16 | O=C(N/N=C/c1ccc(O)cc1O)c1ccc(NC(=O)C2CCCCC2)cc1 |  | inactive: 33.4%
17 | Cc1ccc(S(=O)(=O)Nc2cc(Cl)c(O)c3ncccc23)cc1 | inconclusive: 14.1 µM [fluorescent, side channel, full curve] | 
18 | O=C(NCC(O)c1ccccc1)c1ccc(Cl)c(S(=O)(=O)N2CCCCC2)c1 (centres undefined) | inconclusive: 14.1 µM [fluorescent, side channel, single point] | 
19 | Cc1cc(OCC(=O)C(C)(C)C)c2c(-c3ccccc3)cc(=O)oc2c1 | inconclusive: 14.1 µM [fluorescent, side channel, single point] | 
20 | CCOC(=O)C1=C(CC)Nc2ccccc2N=C1NC(=O)c1cc(S(=O)(=O)N(C)C)ccc1Cl | inconclusive: 10 µM [quencher, side channel, single point] | 
21 | O=C(CN1C(=O)/C(=C/c2ccccc2F)Sc2ccccc21)N1CCN(c2ccccn2)CC1 | inconclusive: 10 µM [quencher, side channel, full curve] | 
22 | CCN1C(=O)/C(=C2/Sc3ccccc3N2CC)S/C1=N\c1ncn[nH]1 | inconclusive: 63.1 µM [fluorescent, side channel, single point] | 

Row | SMILES | Potency | activity change, negative = inhibition
23 | COc1ccccc1C1CCN(Cc2ccc(Cl)cc2Cl)CC1 | inconclusive: 31.6 µM [fluorescent, side channel, partial curve] | 
24 | COc1cc(/C=C2\SC(=S)NC2=O)ccc1OS(=O)(=O)c1ccccc1 |  | inactive: 0.345%
25 | Cc1cc(=O)n(-c2ccc(C(=O)O)cc2)[nH]1 | inconclusive: 39.8 µM [inhibitor, single point] | 
26 | O=C(Nc1cc(Cl)ccc1O)c1cc2n(n1)C(C(F)(F)F)CC(c1ccc3c(c1)OCO3)N2 (centres undefined) | inconclusive: 8.91 µM [quencher, side channel, full curve] | 
27 | COc1ccc(CNCCSc2nnnn2C)c(OC)c1OC | inconclusive: 15.8 µM [inhibitor, partial curve] | 
28 | C=CCc1c(C)nc2c(C(=O)O)cnn2c1C |  | inactive: 9.08%
29 | O=C(Cc1ccc(Cl)cc1)NCC(=O)N1CCCCC1 |  | inactive: -5.76%
30 | Cc1cccnc1NC(=O)Cn1c(=O)oc2ccccc21 | inconclusive: 1 µM [quencher, side channel, full curve, poor fit] | 
31 | CC[C@@]1(O)C(=O)OCc2c1cc1n(c2=O)Cc2cc3c(N)cccc3nc2-1 |  | inactive: -0.0117%
32 | O=C(c1ccc(=O)oc1)N1CCOCC1 | inconclusive: 89.1 µM [inhibitor, single point] | 
33 | CCOc1cccc2sc(NC(=O)CCS(=O)(=O)c3ccccc3)nc12 | inconclusive: 6.31 µM [fluorescent, side channel, single point] | 
34 | Cc1ccc(CC(=O)NCc2ccc(F)cc2)cc1 | inconclusive: 35.5 µM [inhibitor, single point] | 
35 | O=c1c2cnn(-c3ccccc3)c2nc(-c2cccs2)n1-c1ccc(Cl)cc1 | inconclusive: 63.1 µM [fluorescent, side channel, single point] | 
36 | CC1(C)CC(=O)C(N=Nc2cc3c(cc2[N+](=O)[O-])OCCO3)=C(O)C1 | inconclusive: 35.5 µM [inhibitor, single point] | 
37 | CC1(C)Cc2nc3nc(SCC(=O)Nc4ccccc4)nc(N)c3cc2CO1 | inconclusive: 31.6 µM [fluorescent, side channel, partial curve] | 
38 | O=C(O)Cc1sc(N/N=C\c2ccncc2)nc1-c1ccccc1 | inconclusive: 35.5 µM [fluorescent, partial curve] | 
39 | CC(C)OC(=O)c1cccnc1SCC(=O)N(C)c1ccccc1 | inconclusive: 79.4 µM [quencher, side channel, single point] | 
40 | CCOC(=O)c1c(C)nc2c(C#N)cnn2c1C |  | inactive: -0.877%
41 | O=C(O)CCCN1C(=O)/C(=C/c2ccc(-c3nc4ccccc4s3)o2)SC1=S | inconclusive: 35.5 µM [inhibitor, partial curve] | 
42 | Cn1c(N)c(S(=O)(=O)N2CCCC2)c(=O)n(C)c1=O | inconclusive: 10 µM [quencher, side channel, single point] | 
43 | CC1(C)Cc2nc3oc4c(NCCCN5CCOCC5)ncnc4c3cc2CO1 |  | inactive: 1.34%
44 | CCOC(=O)CCS(=O)(=O)c1nc(-c2ccccc2)cc(C(F)(F)F)n1 | inconclusive: 25.1 µM [quencher, side channel, partial curve] | 

Row | SMILES | Potency | activity change, negative = inhibition
45 | Cc1cccc(/N=C/c2sc3ccccc3c2O)n1 | inconclusive: 7.94 µM [fluorescent, side channel, single point] | 
46 | Cn1ccnc1Sc1cc(Cl)ccc1[N+](=O)[O-] | inconclusive: 14.1 µM [fluorescent, side channel, single point] | 
47 | CCCCCCN1CC(=O)N2Cc3[nH]c4ccccc4c3C[C@H]2C1=O |  | inactive: 5.13%
48 | CC(=O)c1ccc(OCc2cc(C(=O)N3CCN4CCCC4C3)no2)cc1 (centres undefined) | inconclusive: 25.1 µM [fluorescent, side channel, partial curve] | 
49 | Cc1ccc(-n2ncc3c2CC(C)(C)CC3NC(=O)CCc2cccnc2)cc1 (centres undefined) |  | inactive: 10.8%
50 | COc1cccc(-c2nc(=S)c3c(n2Cc2ccco2)CCCC3)c1 |  | inactive: -2.31%
51 | COC(=O)c1cc(NS(=O)(=O)c2ccc(N3CCOCC3)c([N+](=O)[O-])c2)cc(C(=O)OC)c1 |  | inactive: -4.95%
52 | Cc1cc(C)nc(CCNC(=O)CC2C(=O)NCCN2Cc2ccc(F)cc2Cl)n1 (centres undefined) | inconclusive: 14.1 µM [quencher, side channel, single point] | 
53 | COc1ccc(C2Nc3ccccc3C(=O)N2Cc2ccccc2)cc1COc1ccccn1 (centres undefined) |  | inactive: 4%
54 | COc1ccc(-c2cnc(N)nc2-c2ccc(OC)cc2)cc1 | inconclusive: 14.1 µM [fluorescent, side channel, single point] | 
55 | Cc1cc(C)c2nc(NC(=O)c3ccc(OCC4CCCO4)cc3)sc2c1 (centres undefined) | inconclusive: 28.2 µM [fluorescent, side channel, single point] | 
56 | CC(=Nc1ccccc1O)c1sc2ccccc2c1O | inconclusive: 28.2 µM [fluorescent, side channel, partial curve] | 
57 | CN1C(=O)c2cccc3c(N)ccc(c23)C1=O | inconclusive: 50.1 µM [fluorescent, side channel, partial curve] | 
58 | COc1ccc(S(=O)(=O)Nc2cc(C)c(O)c(S(=O)(=O)c3ccccc3)c2)cc1 |  | inactive: 17.8%
59 | Cc1ccc(S(=O)(=O)Nc2ccccc2C(=O)N2CCOCC2)cc1 | inconclusive: 8.91 µM [fluorescent, side channel, single point] | 
60 | COc1cccc(C(=O)CN2C3=NCCCN3c3ccccc32)c1 |  | inactive: 7.59%
61 | O=C1NCCCC1C(=O)Nc1cccc(C(F)(F)F)c1 (centres undefined) |  | inactive: -2.59%
62 | OCCN1CCN(c2nc(-c3ccccc3)c3cc(Br)ccc3n2)CC1 | inconclusive: 8.91 µM [inhibitor, full curve, poor fit] | 
63 | O=C(O)CCS(=O)(=O)c1nc(-c2cccs2)cc(C(F)(F)F)n1 |  | inactive: 4.32%
64 | Nc1c(C(=O)c2ccccc2)sc2nsc(SCCN3CCCC3)c12 | inconclusive: 25.1 µM [fluorescent, side channel, partial curve] | 

Copied from the list:
`OCCN1CCN(c2nc(-c3ccccc3)c3cc(Br)ccc3n2)CC1` – Potency: inconclusive: 8.91 µM [inhibitor, full curve, poor fit]
`O=C1NCCCC1C(=O)Nc1cccc(C(F)(F)F)c1` (centres undefined) – activity change, negative = inhibition: inactive: -2.59%
`COc1ccc(S(=O)(=O)Nc2cc(C)c(O)c(S(=O)(=O)c3ccccc3)c2)cc1` – activity change, negative = inhibition: inactive: 17.8%
